Experimental data taken from paper PMC10085704.
Results are given in words; binding and its absence hold for the method and conditions named. In cells and extracts the contact can be indirect. A yes stands for co-enrichment or nearness to the bait. Other partners may have been found.

By UniProt entry, the sequences of proteins in these tests, tags left out.
UniProt Q5SVQ0: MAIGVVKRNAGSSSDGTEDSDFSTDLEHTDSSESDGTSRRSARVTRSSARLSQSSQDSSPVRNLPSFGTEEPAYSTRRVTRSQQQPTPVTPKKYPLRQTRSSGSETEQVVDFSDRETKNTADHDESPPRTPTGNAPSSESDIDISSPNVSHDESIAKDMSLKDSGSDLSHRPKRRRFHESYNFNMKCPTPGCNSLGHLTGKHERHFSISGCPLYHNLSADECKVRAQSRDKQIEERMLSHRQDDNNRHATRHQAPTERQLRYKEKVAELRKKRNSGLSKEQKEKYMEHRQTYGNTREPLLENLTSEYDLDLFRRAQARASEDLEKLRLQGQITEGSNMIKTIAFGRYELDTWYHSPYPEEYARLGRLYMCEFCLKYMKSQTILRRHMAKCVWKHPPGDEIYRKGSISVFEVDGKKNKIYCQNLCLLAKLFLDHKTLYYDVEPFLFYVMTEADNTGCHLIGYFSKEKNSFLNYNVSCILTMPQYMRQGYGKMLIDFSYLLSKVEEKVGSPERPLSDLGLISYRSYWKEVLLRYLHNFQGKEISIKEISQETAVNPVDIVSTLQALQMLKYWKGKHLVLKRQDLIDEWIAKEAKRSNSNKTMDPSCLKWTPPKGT
UniProt B2RRD7: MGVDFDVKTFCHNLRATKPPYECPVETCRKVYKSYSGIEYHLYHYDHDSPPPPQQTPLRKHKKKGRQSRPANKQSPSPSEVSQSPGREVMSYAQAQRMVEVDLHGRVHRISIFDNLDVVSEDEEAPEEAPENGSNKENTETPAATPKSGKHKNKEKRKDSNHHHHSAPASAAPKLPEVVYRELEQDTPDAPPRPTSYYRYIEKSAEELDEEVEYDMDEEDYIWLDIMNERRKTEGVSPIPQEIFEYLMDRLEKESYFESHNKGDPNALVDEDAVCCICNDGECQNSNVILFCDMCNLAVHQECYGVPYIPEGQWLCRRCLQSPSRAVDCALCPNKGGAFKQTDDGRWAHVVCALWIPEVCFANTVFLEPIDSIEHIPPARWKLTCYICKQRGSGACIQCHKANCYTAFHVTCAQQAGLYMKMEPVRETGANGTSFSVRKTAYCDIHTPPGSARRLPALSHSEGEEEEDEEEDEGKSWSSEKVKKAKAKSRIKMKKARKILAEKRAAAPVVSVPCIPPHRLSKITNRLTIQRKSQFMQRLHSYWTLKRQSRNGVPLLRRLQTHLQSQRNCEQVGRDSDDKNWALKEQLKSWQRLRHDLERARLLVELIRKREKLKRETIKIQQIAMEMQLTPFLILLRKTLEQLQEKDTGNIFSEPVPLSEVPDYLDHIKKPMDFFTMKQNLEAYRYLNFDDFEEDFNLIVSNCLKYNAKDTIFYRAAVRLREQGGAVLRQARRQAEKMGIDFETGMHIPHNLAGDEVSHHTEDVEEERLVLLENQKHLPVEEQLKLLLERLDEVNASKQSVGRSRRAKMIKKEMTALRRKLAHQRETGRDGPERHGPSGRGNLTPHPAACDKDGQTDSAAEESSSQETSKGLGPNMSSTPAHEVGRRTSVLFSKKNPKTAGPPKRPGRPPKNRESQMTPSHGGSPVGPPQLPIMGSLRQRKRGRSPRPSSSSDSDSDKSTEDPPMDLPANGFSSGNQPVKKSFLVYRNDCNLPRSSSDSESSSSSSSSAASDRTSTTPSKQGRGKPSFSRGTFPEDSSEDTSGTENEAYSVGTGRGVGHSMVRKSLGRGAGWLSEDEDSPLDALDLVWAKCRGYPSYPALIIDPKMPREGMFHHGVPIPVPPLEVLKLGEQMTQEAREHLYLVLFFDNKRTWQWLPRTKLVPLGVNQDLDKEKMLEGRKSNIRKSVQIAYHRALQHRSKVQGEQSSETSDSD
UniProt Q6ZQF7: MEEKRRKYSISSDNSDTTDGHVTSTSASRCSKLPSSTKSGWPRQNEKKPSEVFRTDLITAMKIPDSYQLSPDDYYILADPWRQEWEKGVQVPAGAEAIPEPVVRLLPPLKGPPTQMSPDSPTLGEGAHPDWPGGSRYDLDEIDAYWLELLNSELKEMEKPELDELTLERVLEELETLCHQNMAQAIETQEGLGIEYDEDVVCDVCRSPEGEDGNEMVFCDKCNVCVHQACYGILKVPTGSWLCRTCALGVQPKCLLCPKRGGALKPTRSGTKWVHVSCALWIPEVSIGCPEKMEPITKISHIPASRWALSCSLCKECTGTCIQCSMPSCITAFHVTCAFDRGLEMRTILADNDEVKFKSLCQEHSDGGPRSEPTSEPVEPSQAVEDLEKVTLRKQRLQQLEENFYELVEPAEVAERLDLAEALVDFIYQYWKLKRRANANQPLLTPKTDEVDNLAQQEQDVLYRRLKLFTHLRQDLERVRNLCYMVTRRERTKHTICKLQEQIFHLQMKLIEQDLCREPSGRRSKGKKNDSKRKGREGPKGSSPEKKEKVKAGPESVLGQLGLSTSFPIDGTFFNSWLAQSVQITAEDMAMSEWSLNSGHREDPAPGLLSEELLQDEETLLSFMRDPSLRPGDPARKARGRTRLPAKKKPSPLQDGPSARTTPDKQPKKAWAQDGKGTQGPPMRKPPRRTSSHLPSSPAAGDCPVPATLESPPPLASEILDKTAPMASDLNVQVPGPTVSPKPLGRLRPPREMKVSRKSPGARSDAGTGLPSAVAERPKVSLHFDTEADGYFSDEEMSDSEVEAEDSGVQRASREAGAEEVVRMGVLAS
UniProt Q8C0D7: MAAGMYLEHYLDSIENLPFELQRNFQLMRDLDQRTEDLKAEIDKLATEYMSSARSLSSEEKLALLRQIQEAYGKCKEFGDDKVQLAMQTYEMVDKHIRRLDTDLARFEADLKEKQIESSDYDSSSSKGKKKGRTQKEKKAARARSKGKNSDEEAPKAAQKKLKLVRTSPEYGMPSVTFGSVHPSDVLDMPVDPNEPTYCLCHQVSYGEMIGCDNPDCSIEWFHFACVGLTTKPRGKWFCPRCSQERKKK
UniProt Q6ZPI0: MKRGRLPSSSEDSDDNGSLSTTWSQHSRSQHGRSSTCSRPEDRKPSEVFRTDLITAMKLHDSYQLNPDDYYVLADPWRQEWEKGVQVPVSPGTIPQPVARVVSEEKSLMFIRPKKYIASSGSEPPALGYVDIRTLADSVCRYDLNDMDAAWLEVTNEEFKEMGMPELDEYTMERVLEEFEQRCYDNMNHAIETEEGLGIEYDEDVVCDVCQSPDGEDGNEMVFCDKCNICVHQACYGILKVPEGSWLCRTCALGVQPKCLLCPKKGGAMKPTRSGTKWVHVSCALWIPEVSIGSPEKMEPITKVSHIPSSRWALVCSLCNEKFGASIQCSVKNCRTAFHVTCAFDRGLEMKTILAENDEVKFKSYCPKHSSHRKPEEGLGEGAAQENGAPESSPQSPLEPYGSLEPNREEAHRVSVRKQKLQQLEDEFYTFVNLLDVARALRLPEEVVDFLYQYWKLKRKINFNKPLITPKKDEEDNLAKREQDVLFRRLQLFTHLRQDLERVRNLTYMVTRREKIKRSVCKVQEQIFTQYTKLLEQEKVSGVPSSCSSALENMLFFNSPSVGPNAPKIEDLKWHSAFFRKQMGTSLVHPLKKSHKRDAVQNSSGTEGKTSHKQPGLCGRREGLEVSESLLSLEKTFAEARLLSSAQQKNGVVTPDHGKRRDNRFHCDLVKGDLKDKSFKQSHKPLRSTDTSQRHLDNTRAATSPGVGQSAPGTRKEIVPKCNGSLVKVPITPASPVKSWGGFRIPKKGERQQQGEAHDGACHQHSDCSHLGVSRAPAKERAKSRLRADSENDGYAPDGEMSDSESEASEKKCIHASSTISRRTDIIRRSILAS
UniProt Q9D8Y8: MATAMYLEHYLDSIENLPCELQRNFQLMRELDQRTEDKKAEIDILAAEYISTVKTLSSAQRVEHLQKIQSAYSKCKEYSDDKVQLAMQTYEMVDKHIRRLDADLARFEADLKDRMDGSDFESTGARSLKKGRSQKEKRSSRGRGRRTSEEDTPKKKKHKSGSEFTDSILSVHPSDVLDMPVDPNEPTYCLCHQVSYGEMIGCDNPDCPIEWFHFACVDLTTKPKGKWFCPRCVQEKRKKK

B1: JADE3 (protein, UniProt Q6IE82 1-823)
chain: MKRHRPVSSSESSDECPSTSFTSSSMYRKKSKNPKEQKKSAEVFRKDLISAMKIPDSHHVNPDSYYLFTDTWKEEWEKGVQVPANPDSVPTPSLRIISEKVKEMLFVRPRKYIRCSSPESAEPGYINTLEQAASTCRYDLDDMDIFWLQELNEDLGEMGYGPIDETLMEKTIEVLERHCHENMNHAIETVEGLGIEYDEDVICDVCRSPDSEEGNDMVFCDKCNVCVHQACYGILKIPEGSWLCRSCVLGIYPQCVLCPKKGGAMKTTRTGTKWAHVSCALWIPEVSIACPERMEPVTKISHIPPSRWALVCNLCKLKTGACIQCSVKSCITAFHVTCAFEHGLEMKTILDEGDEVKFKSFCLKHSQNKPKLGDAEYHHHRVAEQSQAKSEKTSLRAQKLRELEEEFYTLVQVEDVAKEMELSAFTVDFIYNYWKLKRKSNFNKPLIPPKEEEENGLVQPKEESIHTRMRMFMHLRQDLERVRNLCYMISRREKLKLSHTKVQEQIFGLQVQLINEEITEGLSLTNALENSLFYPPPRITLKLKMPKSTSEDCKDSSTETEHQLSSPGSSSPGHSKRSPQMPEEPLDMNVKIYPRYPLESKSNCLQTSRSHSRCETKSSSPTPRAPSAEFYHGQSLGKPLALQAALHGQVSIGNGKNQPNSRVSSSNGLEGNWSGNITQKVNSSEVCYDQESMLSSHLPSPGNIRKSSMEHFSRSFKEATNTWVKPTEDLQYCVKPTKNVSSKEQLWGRQLLRRPTGRASYQETDGYCPDLEPSDSEAEGEGSKETPRVKRESSDRENPSHDSARECHGKTKTHPHSHSSMQR

These molecules were tested against KAT7 (mouse (endogenous in mouse PSCs)) (UniProt Q5SVQ0) (assay: affinity purification with mass spectrometry; ChIP-MS with a KAT7 antibody (Abcam ab70183) against normal rabbit IgG; cells crosslinked in 1% paraformaldehyde, lysed in IP buffer, sonicated; protein A sepharose; low salt and high salt (500 mM NaCl) washes; on-bead digestion; triplicates in naive, formative and primed mouse PSCs).
With BRPF1 (from UniProt B2RRD7 1-1212) the binding was “binds weakly”.
With JADE2 (from UniProt Q6ZQF7 1-829) the binding was “binds”.
ING4 (from UniProt Q8C0D7 1-249) was tested, and the binding was “binds”.
With JADE1 (from UniProt Q6ZPI0 1-834) the binding was “binds”.
In the case of ING5 (from UniProt Q9D8Y8 1-240), the binding is reported as “binds”.
With B1 the binding was “binds”.
